The other results are listed elsewhere or left out.
What was measured:
Assay in all cases: log2 fold change, soluble protein after heating vs DMSO (PISA); higher = thermal stabilisation; K562 cells, 10 uM, 30 min; active = over 0.2 and 3.5 SD of the protein, either way, in both replicates (recomputed)
[1] = compound: CS(=O)(=O)c1ccc(-c2cnc(N)c(C(=O)Nc3ccccc3)n2)cc1
Procedure, shortened: (§1)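 K562 cells at 2×10^6 cells/mL were given 10 μM compound for 30 min. Aliquots then went through 3 min of heating across 48°C-58°C, were pooled, and were extracted in PBS with 0.5% NP-40 at 4°C, and the supernatant after 21,000xg for 90 min was quantified by TMTpro 16plex LC-MS/MS with channel sums equalised. Thermal stability relative to control samples, from duplicates, is given as log2 fold change.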

Chains of the proteins cited; added tags and fusions are not shown. Lines headed by an entry give the natural chain unless they say otherwise; changes in a name come on top.
UniProt Q9UJV9: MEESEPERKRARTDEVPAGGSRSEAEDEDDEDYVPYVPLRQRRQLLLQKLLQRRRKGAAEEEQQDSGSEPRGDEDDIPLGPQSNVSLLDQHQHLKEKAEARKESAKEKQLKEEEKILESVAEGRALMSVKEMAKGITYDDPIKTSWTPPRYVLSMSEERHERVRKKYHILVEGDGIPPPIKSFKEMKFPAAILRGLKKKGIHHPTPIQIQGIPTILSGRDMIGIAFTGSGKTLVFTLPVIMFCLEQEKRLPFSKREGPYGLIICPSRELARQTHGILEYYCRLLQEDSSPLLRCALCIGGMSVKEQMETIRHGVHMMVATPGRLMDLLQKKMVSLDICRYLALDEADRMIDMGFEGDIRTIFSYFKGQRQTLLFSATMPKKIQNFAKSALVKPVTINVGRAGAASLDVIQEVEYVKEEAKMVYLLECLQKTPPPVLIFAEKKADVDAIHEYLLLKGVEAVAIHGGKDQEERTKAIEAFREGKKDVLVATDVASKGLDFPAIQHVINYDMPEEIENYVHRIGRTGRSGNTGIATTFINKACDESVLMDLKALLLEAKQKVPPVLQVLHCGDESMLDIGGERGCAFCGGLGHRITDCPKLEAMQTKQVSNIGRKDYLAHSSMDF
UniProt O76075: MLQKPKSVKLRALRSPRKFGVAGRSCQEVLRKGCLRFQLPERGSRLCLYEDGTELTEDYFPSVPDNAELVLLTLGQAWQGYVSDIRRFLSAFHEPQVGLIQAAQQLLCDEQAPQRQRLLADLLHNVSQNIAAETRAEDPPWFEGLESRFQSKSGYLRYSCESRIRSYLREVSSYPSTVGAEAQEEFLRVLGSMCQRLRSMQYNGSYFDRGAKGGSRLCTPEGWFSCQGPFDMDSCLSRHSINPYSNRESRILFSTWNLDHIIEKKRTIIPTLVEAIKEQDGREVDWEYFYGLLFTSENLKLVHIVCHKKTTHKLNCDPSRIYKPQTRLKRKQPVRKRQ
UniProt P39656: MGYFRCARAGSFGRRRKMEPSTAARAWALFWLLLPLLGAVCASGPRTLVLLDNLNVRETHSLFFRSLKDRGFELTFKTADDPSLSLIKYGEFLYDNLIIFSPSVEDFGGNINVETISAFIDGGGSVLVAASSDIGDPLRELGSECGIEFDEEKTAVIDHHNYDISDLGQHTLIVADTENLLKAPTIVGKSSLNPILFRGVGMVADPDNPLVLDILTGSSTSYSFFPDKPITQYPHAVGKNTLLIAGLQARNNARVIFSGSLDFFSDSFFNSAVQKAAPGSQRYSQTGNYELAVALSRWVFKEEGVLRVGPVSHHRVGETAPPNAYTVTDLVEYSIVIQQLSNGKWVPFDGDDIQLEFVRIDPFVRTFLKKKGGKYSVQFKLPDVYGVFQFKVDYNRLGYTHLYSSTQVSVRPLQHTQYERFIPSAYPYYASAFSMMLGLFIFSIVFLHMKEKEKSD
UniProt Q9NQI0, whole entry, looked up: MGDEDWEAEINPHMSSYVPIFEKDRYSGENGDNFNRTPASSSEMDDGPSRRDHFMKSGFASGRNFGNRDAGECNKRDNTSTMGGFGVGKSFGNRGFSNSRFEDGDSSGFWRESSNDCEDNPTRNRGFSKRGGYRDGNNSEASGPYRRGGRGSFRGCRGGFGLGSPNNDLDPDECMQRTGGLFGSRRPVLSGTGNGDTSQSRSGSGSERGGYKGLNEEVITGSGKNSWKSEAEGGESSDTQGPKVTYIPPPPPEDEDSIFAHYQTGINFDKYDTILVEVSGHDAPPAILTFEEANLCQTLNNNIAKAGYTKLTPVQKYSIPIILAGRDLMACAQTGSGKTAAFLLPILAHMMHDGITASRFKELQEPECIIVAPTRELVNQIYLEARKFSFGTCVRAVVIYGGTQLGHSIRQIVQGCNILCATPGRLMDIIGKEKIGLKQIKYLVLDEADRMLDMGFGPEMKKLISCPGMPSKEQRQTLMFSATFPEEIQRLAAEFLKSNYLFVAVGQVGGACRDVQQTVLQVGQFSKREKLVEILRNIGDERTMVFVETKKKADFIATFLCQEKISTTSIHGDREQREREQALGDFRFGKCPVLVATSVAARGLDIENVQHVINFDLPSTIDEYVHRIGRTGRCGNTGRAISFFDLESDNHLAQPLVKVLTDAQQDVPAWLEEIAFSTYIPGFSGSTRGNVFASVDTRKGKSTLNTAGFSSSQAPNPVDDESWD
UniProt Q7L014: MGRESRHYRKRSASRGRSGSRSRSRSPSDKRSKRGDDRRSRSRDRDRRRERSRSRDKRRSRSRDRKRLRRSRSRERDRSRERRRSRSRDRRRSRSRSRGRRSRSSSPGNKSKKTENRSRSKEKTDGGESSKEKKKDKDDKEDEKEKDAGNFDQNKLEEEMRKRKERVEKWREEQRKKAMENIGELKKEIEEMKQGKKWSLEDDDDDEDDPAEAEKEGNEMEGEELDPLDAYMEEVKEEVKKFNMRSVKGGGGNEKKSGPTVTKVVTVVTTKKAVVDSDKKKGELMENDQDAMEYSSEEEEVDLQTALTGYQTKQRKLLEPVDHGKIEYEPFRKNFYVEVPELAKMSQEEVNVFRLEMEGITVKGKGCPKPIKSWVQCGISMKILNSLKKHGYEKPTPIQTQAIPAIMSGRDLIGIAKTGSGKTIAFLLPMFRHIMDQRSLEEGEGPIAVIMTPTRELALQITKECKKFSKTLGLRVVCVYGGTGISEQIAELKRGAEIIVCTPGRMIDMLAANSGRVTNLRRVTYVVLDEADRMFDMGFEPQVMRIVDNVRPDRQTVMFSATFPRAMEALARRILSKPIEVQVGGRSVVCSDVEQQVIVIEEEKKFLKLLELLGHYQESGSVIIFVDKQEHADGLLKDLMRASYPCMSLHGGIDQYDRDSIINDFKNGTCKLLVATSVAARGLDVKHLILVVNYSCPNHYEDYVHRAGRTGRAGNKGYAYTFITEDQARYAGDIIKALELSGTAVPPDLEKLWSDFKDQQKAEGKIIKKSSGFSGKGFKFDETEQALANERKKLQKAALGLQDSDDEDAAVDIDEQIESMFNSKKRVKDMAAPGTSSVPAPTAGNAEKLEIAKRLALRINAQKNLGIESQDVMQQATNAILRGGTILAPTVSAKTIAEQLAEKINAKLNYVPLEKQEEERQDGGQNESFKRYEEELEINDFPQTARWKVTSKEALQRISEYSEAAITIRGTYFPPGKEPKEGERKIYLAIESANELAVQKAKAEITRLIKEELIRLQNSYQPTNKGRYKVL
UniProt P49366: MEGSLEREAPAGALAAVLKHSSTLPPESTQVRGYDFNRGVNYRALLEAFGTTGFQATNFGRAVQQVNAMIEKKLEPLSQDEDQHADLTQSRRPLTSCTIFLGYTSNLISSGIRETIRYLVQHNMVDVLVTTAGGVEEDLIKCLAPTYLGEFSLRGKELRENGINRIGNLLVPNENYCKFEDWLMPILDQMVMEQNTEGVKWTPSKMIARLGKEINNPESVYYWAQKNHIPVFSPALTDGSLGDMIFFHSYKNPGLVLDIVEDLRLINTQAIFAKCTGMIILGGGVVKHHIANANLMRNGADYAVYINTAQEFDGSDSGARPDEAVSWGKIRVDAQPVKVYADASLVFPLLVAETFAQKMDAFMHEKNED
UniProt Q9Y485, whole entry, looked up: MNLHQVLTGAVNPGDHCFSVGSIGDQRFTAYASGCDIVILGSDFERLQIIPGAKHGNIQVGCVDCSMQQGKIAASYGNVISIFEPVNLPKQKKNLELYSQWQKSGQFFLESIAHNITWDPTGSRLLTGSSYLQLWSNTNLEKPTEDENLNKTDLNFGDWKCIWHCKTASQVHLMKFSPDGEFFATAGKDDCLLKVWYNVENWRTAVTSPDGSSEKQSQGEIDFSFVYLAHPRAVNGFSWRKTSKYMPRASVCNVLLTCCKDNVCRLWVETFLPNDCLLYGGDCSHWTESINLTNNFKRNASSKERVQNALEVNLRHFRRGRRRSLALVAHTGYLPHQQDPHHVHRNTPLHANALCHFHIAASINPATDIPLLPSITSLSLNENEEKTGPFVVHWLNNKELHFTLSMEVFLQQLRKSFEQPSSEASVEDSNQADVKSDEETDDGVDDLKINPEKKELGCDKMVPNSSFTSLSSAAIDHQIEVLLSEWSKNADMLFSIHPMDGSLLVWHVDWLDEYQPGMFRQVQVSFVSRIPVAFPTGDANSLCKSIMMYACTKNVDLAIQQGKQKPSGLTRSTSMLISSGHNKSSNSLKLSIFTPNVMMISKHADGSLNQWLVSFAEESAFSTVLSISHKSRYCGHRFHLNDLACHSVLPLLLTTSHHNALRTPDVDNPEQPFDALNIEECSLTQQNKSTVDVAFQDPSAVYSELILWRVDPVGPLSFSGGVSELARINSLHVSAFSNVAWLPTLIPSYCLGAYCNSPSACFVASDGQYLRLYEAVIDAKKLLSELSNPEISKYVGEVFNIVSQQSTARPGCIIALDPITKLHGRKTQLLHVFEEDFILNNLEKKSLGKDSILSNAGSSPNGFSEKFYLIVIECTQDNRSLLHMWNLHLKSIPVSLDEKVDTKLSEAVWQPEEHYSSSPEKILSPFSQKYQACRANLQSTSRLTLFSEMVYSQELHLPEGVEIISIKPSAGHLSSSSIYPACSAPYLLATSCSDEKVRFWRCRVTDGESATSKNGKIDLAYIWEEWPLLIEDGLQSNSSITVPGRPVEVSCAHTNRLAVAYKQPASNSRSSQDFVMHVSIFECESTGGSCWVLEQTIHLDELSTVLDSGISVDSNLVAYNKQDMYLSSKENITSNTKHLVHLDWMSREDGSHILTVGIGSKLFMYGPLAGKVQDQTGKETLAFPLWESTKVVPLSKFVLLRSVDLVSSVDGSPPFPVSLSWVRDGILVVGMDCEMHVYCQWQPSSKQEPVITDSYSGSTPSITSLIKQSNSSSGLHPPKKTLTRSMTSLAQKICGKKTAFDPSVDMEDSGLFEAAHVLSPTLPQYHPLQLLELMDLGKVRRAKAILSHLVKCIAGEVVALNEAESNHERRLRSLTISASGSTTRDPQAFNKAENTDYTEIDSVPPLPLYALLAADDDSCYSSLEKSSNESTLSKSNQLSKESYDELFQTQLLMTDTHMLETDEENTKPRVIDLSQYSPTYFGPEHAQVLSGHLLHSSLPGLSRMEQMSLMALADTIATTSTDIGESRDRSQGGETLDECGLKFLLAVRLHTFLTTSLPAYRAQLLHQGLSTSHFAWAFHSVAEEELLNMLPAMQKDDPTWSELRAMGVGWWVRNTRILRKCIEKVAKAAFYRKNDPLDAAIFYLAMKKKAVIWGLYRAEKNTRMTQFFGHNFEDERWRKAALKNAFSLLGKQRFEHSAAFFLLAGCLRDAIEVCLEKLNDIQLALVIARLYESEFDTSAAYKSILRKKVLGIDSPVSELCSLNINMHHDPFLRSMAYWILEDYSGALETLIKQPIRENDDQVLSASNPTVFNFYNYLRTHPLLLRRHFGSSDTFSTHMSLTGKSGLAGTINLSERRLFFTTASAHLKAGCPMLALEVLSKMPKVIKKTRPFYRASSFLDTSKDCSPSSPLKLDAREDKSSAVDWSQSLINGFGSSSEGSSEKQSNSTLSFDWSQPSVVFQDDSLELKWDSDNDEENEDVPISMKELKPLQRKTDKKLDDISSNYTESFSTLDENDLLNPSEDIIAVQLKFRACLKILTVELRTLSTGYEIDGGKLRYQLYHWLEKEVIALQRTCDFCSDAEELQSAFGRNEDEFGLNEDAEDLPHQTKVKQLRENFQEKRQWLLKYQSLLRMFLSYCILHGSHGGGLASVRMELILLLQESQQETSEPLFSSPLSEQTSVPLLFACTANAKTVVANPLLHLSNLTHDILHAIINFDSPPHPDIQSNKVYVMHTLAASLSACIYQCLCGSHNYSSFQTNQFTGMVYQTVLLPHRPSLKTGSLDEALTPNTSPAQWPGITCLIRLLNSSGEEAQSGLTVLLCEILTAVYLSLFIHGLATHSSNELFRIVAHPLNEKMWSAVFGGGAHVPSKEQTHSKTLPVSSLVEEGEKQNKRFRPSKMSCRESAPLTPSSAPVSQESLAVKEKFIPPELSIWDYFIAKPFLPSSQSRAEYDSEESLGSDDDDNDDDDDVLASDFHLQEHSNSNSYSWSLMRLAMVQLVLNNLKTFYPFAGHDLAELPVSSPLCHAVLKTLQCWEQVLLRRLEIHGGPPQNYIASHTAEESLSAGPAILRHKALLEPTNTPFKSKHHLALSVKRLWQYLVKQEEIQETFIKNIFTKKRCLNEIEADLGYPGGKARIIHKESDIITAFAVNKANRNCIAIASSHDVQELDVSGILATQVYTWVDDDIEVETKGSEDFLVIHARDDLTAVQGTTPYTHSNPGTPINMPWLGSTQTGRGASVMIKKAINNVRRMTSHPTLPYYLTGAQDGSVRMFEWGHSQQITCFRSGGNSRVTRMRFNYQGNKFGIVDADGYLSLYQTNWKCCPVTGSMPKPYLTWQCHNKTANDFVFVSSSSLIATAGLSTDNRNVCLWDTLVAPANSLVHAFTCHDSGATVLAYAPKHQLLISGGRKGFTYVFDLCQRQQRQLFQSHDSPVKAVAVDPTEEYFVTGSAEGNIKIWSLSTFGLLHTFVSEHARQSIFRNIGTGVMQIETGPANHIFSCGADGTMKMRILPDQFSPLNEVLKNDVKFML

[2] = compound: C[C@@H]1COCCN1C2=NC(=NC(=C2)C3(CC3)S(=O)(=O)C)C4=C5C=CNC5=CC=C4
Procedure, shortened: as §1

[3] = compound: C[C@H](C1=CC=C(C=C1)C(=O)NC2=C3C=CNC3=NC=C2)N
Procedure, shortened: as §1

[4] = compound: C[C@H](Nc1ncnc2nc[nH]c12)c1cc2cccc(Cl)c2c(=O)n1-c1ccccc1 [duvelisib]
Procedure, shortened: as §1

[5] = compound: Cc1cc(Nc2cc(CN3CCOCC3)c3nc(C)c(Cc4ccc(Cl)cc4F)n3n2)n[nH]1 [gandotinib]
Procedure, shortened: as §1

[6] = compound: Cc1cc(Nc2cc(N3CCN(C)CC3)nc(Sc3ccc(NC(=O)C4CC4)cc3)n2)n[nH]1 [tozasertib]
Procedure, shortened: as §1

[7] = compound: Cc1cc(SCc2sc(-c3ccc(C(F)(F)F)cc3)nc2C)ccc1OCC(=O)O
Procedure, shortened: as §1

[8] = compound: Cc1ccc(C(=O)N(CCCN)[C@@H](c2nc3cc(Cl)ccc3c(=O)n2Cc2ccccc2)C(C)C)cc1 [ispinesib]
Procedure, shortened: as §1

[9] = compound: Cc1ccc(NC(=O)c2ccc(CN3CC[C@H](N(C)C)C3)c(C(F)(F)F)c2)cc1Nc1nccc(-c2cncnc2)n1 [bafetinib]
Procedure, shortened: as §1

[10] = compound: Cc1cccc(CC(=O)N2CCc3c2ccc(-c2cn(C)c4ncnc(N)c24)c3F)n1
Procedure, shortened: as §1

[11] = compound: Cc1cn(-c2cc(NC(=O)c3ccc(C)c(Nc4nccc(-c5cccnc5)n4)c3)cc(C(F)(F)F)c2)cn1 [nilotinib]
Procedure, shortened: as §1

[12] = compound: Cc1nc(Nc2n[nH]c3c2CN(C(=O)N[C@H](CN(C)C)c2ccccc2)C3(C)C)c2sccc2n1
Procedure, shortened: as §1

[13] = compound: Cc1nc(Nc2ncc(C(=O)Nc3c(C)cccc3Cl)s2)cc(N2CCN(CCO)CC2)n1 [dasatinib]
Procedure, shortened: as §1

[14] = compound: Cc1ncc(-c2ccnc(Nc3ccc(S(C)(=O)=O)cc3)n2)n1C(C)C
Procedure, shortened: as §1

[15] = compound: Cn1cc(-c2ccc3c(c2)CCN3C(=O)Cc2cccc(C(F)(F)F)c2)c2c(N)ncnc21
Procedure, shortened: as §1

[16] = compound: Cn1cc(-c2ccc3nnc(C(F)(F)c4ccc5ncccc5c4)n3n2)cn1
Procedure, shortened: as §1

[17] = compound: Cn1cncc1[C@@](N)(c1ccc(Cl)cc1)c1ccc2c(c1)c(-c1cccc(Cl)c1)cc(=O)n2C [tipifarnib]
Procedure, shortened: as §1

[18] = compound: FC(F)(F)c1ccc(/C=C/c2nc(COc3ccc(CCCCn4ccnn4)cc3)co2)cc1 [mubritinib]
Procedure, shortened: as §1

[19] = compound: C[C@@H](Oc1cc(-c2cnn(C3CCNCC3)c2)cnc1N)c1c(Cl)ccc(F)c1Cl [crizotinib]
Procedure, shortened: as §1

[20] = compound: Cc1ccc(-n2nc(C(C)(C)C)cc2NC(=O)Nc2ccc(OCCN3CCOCC3)c3ccccc23)cc1 [doramapimod]
Procedure, shortened: as §1

Measured: log2 fold change

DDX41 (UniProt Q9UJV9)
inactive: [1] 0.027 | [2] -0.231 | [3] -0.212 | [4] -0.052 | [5] -0.066 | [6] 0 | [7] -0.044 | [8] -0.069 | [9] -0.16 | [10] 0.01 | [11] -0.065 | [12] -0.055 | [13] -0.035 | [14] -0.003 | [15] -0.099 | [16] 0.006 | [17] 0.119 | [18] -0.033

DDX27 (UniProt Q96GQ7)
inactive: [1] -0.039 | [19] -0.037 | [2] -0.064 | [3] 0.37 | [5] 0.073 | [7] 0.071 | [20] 0.135 | [8] 0.004 | [10] -0.093 | [11] -0.193 | [12] -0.051 | [13] 0.21 | [14] 0.3 | [15] -0.313 | [16] -0.151 | [18] -0.146

DFFB (UniProt O76075)
inactive: [1] 0.018 | [19] 0.072 | [2] 0.012 | [3] 0.106 | [5] -0.017 | [7] -0.012 | [20] -0.021 | [8] -0.006 | [9] 0.042 | [10] -0.032 | [11] -0.047 | [12] -0.156 | [13] -0.057 | [14] 0.056 | [15] -0.053 | [16] 0.002 | [17] -0.072 | [18] 0.019

DDOST (UniProt P39656)
inactive: [1] 0.014 | [19] -0.051 | [2] -0.065 | [3] -0.055 | [5] 0.02 | [7] -0.016 | [20] 0.005 | [8] 0.13 | [9] -0.035 | [10] -0.001 | [11] -0.005 | [12] 0.033 | [13] 0.016 | [14] -0.039 | [15] -0.04 | [16] 0 | [17] 0.047 | [18] -0.022

DDX4 (UniProt Q9NQI0)
inactive: [1] 0 | [19] 0.018 | [2] 0.013 | [3] 0.544 | [5] 0.112 | [7] -0.232 | [20] -0.021 | [8] -0.529 | [9] 0.244 | [10] -0.511 | [11] -0.172 | [12] -0.187 | [13] 0.107 | [14] -0.068 | [15] -0.217 | [16] 0.052 | [17] 0.268 | [18] -0.484

DDB2 (UniProt Q92466)
inactive: [1] -0.037 | [2] -0.174 | [3] 0.059 | [4] -0.021 | [5] 0.151 | [6] 0.012 | [7] -0.073 | [8] -0.048 | [9] -0.343 | [10] -0.066 | [11] 0.003 | [12] 0.057 | [13] 0.056 | [14] 0.007 | [15] 0.01 | [16] -0.064 | [17] 0.156 | [18] 0.054

DNAH11 (UniProt Q96DT5)
inactive: [1] -0.054 | [19] 0.071 | [2] 0.062 | [5] 0.104 | [7] -0.069 | [20] 0.037 | [8] -0.125 | [9] 0.097 | [10] -0.396 | [11] 0.101 | [12] 0.015 | [13] -0.036 | [14] 0.072 | [15] -0.441 | [16] 0.126 | [17] 0.344 | [18] -0.276
active: [3] 0.695

DDHD1 (UniProt Q8NEL9)
inactive: [1] -0.047 | [19] 0.006 | [4] 0.196 | [5] 0.012 | [7] 0.424 | [20] 0.068 | [8] -0.096 | [9] -0.197 | [10] -0.147 | [13] -0.647 | [16] 0.168 | [17] 0.119

DDX5 (UniProt P17844)
inactive: [1] 0.035 | [19] -0.16 | [2] 0.135 | [3] 0.125 | [5] -0.016 | [7] 0.165 | [20] -0.044 | [8] 0.052 | [9] 0.272 | [10] 0.018 | [11] 0.166 | [12] -0.092 | [13] -0.19 | [14] 0.076 | [15] 0.029 | [16] 0.046 | [17] -0.155 | [18] 0.326

DHRS1 (UniProt Q96LJ7)
active: [15] 1.1
inactive: [1] 0.009 | [19] 0.248 | [2] 0.089 | [3] -0.028 | [5] 0.297 | [7] 0.571 | [20] 0.557 | [8] 0.247 | [9] 0.352 | [10] 0.316 | [11] 0.638 | [12] -0.076 | [13] 0.02 | [14] -0.14 | [16] -0.106 | [17] 0.717 | [18] 0.178

DDX46 (UniProt Q7L014)
active: [12] -1.44 | [18] 0.604
inactive: [1] 0.12 | [19] 0.1 | [2] 0.185 | [3] -0.025 | [5] -0.144 | [7] 0.235 | [20] -0.087 | [8] 0.197 | [9] 0.196 | [10] 0.094 | [11] 0.271 | [13] -0.084 | [14] 0.1 | [15] 0.104 | [16] 0.102 | [17] -0.113

DHX16 (UniProt O60231)
inactive: [1] 0.023 | [19] -0.013 | [2] 0.182 | [3] -0.03 | [5] -0.06 | [7] 0.053 | [20] -0.018 | [8] -0.01 | [9] 0.001 | [10] 0.044 | [11] -0.031 | [12] 0.019 | [13] -0.095 | [14] -0.006 | [15] 0.059 | [16] 0.002 | [17] -0.04 | [18] 0.147

DHRS7B (UniProt Q6IAN0)
active: [8] 0.367
inactive: [1] 0.066 | [19] 0.194 | [2] 0.003 | [3] -0.08 | [5] -0.232 | [7] 0.105 | [20] -0.006 | [9] 0.001 | [10] 0.213 | [11] 0.114 | [12] 0.01 | [13] -0.066 | [14] 0.056 | [15] 0.047 | [16] -0.113 | [17] 0.008 | [18] -0.023

DHX40 (UniProt Q8IX18)
inactive: [1] 0.018 | [19] -0.109 | [2] -0.003 | [3] 0.03 | [5] -0.079 | [7] 0.01 | [20] 0.065 | [8] -0.215 | [9] -0.033 | [10] 0.038 | [11] -0.052 | [13] -0.229 | [14] 0.118 | [15] 0.103 | [16] 0.035 | [17] 0.017 | [18] 0.084
active: [12] -0.289

DHPS (UniProt P49366)
inactive: [1] 0.015 | [19] -0.008 | [2] 0.043 | [3] -0.047 | [5] 0.032 | [7] -0.054 | [20] 0.051 | [8] 0.067 | [9] 0.026 | [10] -0.057 | [11] 0.035 | [12] 0.001 | [13] 0.014 | [14] 0.004 | [15] 0.008 | [16] -0.005 | [17] -0.047 | [18] 0.061

DDX18 (UniProt Q9NVP1)
inactive: [1] 0.035 | [19] 0.214 | [3] 0.215 | [4] -0.002 | [5] 0.082 | [6] 0.032 | [7] -0.125 | [20] 0.011 | [10] -0.063 | [13] 0.183 | [15] -0.128 | [18] 0.363

DMXL2 isoform 3 (UniProt Q8TDJ6)
inactive: [1] 0.023 | [2] -0.139 | [3] 0.185 | [4] 0.077 | [5] -0.27 | [6] -0.1 | [7] 0.103 | [8] -0.035 | [9] -0.122 | [10] -0.23 | [13] -0.079 | [15] -0.164 | [16] 0.238

Reprinted from the results shown (2 entries):
DDHD1 (UniProt Q8NEL9)
inactive: [1] -0.047 | [19] 0.006 | [4] 0.196 | [5] 0.012 | [7] 0.424 | [20] 0.068 | [8] -0.096 | [9] -0.197 | [10] -0.147 | [13] -0.647 | [16] 0.168 | [17] 0.119

DDX5 (UniProt P17844)
inactive: [1] 0.035 | [19] -0.16 | [2] 0.135 | [3] 0.125 | [5] -0.016 | [7] 0.165 | [20] -0.044 | [8] 0.052 | [9] 0.272 | [10] 0.018 | [11] 0.166 | [12] -0.092 | [13] -0.19 | [14] 0.076 | [15] 0.029 | [16] 0.046 | [17] -0.155 | [18] 0.326

Additional records follow.

DMXL1 (UniProt Q9Y485)
inactive: [1] -0.012 | [19] -0.092 | [2] 0.002 | [3] 0.048 | [5] -0.013 | [7] 0 | [20] 0.047 | [8] -0.217 | [9] -0.14 | [10] -0.034 | [11] -0.002 | [12] 0.018 | [13] -0.099 | [14] -0.012 | [15] 0.021 | [16] 0.021 | [17] -0.035 | [18] -0.053

DICER1 (UniProt Q9UPY3)
inactive: [1] -0.017 | [2] -0.173 | [3] 0.265 | [4] -0.18 | [5] 0.08 | [6] 0.135 | [7] 0.166 | [8] 0 | [9] 0.123 | [10] -0.105 | [11] -0.017 | [12] -0.02 | [13] 0.108 | [14] -0.03 | [15] -0.141 | [16] -0.149 | [17] 0.173 | [18] 0.035

Reference: the supplement of paper PMC10849652
